From PMC5074588
These are yes or no findings as the source states them, for the method shown. For part of these data: Binding can be weak; no strength is given. Sequences can lack the tags named with a protein. For part of these data: Binding seen in cells or lysates may run through a third protein.

Amino acid sequences for entries named in this document (tags omitted). A change or cut given only in a name is not applied to a line headed by its entry.
UniProt Q0WSY2: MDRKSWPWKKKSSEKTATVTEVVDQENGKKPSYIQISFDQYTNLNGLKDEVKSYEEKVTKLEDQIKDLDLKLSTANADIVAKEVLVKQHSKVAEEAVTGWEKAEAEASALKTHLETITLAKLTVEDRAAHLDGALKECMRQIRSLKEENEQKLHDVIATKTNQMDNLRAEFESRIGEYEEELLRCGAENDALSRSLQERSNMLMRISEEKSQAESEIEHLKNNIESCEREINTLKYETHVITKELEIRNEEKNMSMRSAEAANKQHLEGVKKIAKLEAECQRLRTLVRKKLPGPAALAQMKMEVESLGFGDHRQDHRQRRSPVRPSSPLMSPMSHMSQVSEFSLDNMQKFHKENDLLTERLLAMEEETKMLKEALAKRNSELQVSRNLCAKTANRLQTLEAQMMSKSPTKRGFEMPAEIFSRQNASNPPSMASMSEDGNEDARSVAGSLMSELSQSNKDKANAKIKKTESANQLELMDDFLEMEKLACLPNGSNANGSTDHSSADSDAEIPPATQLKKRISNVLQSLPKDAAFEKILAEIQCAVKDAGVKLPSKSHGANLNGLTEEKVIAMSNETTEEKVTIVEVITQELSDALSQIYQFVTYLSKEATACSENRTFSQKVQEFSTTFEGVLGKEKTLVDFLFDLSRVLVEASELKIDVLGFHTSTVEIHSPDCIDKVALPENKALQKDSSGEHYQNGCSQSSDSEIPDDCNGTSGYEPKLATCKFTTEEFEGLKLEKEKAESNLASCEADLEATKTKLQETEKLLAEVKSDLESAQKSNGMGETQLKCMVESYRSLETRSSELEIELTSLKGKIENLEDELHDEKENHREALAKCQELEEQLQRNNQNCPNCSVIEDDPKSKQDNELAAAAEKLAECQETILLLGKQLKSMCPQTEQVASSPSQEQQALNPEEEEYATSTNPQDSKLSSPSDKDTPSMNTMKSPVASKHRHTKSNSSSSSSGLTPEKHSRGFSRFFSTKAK

Key:
[1] = molecular target: TCS1-BD (TCS1 fused to the GAL4 DNA binding domain) (Arabidopsis thaliana) (UniProt Q0WSY2); assay: two-hybrid; prey (pEXP-AD502) and bait (pDBleu) plasmids co-transformed into yeast strain PT69-4A; TCS1 against full length KCBP
[2] = molecular target: TCS1-GFP (pTCS1:TCS1-GFP) (Arabidopsis thaliana) (UniProt Q0WSY2); assay: co-IP; total proteins from pTCS1:TCS1-GFP;35S:Myc-KCBP and 35S:GFP;35S:Myc-KCBP plants (50 mM Tris/HCl pH 7.5, 2% Triton X-100, 150 mM NaCl, MG132) on GFP-Trap-A, 1 h, 4 C; immunoblot with anti-GFP and anti-Myc
[3] = molecular target: MBP-TCS1 (TRICHOME CELL SHAPE 1 fused to maltose binding protein) (Arabidopsis thaliana) (UniProt Q0WSY2); assay: pull-down; bacterial lysates with ~15 ug MBP-TCS1 or MBP mixed with ~20 ug AN-His fusion proteins; amylose resin, 4 C, 1 h; washed five times with TGH buffer; anti-His immunoblot; only the binder purified

B1: KCBP-AD (full length KCBP/ZWICHEL, two-hybrid fusion) (protein, UniProt Q9FHN8 1-1260)
chain: MEGQRGSNSSLSSGNGTEVATDVSSCFYVPNPSGTDFDAESSSLPPLSPAPQVALSIPAELAAAIPLIDRFQVEAFLRLMQKQIQSAGKRGFFYSKKSSGSNVRERFTFEDMLCFQKDPIPTSLLKINSDLVSRATKLFHLILKYMGVDSSDRSTPPSLDERIDLVGKLFKKTLKRVELRDELFAQISKQTRHNPDRQYLIKAWELMYLCASSMPPSKDIGGYLSEYIHNVAHDATIEPDAQVLAVNTLKALKRSIKAGPRHTTPGREEIEALLTGRKLTTIVFFLDETFEEISYDMATTVSDAVEELAGTIKLSAFSSFSLFECRKVVSSSKSSDPGNEEYIGLDDNKYIGDLLAEFKAIKDRNKGEILHCKLVFKKKLFRESDEAVTDLMFVQLSYVQLQHDYLLGNYPVGRDDAAQLCALQILVGIGFVNSPESCIDWTSLLERFLPRQIAITRAKREWELDILARYRSMENVTKDDARQQFLRILKALPYGNSVFFSVRKIDDPIGLLPGRIILGINKRGVHFFRPVPKEYLHSAELRDIMQFGSSNTAVFFKMRVAGVLHIFQFETKQGEEICVALQTHINDVMLRRYSKARSAANSLVNGDISCSSKPQNFEVYEKRLQDLSKAYEESQKKIEKLMDEQQEKNQQEVTLREELEAIHNGLELERRKLLEVTLDRDKLRSLCDEKGTTIQSLMSELRGMEARLAKSGNTKSSKETKSELAEMNNQILYKIQKELEVRNKELHVAVDNSKRLLSENKILEQNLNIEKKKKEEVEIHQKRYEQEKKVLKLRVSELENKLEVLAQDLDSAESTIESKNSDMLLLQNNLKELEELREMKEDIDRKNEQTAAILKMQGAQLAELEILYKEEQVLRKRYYNTIEDMKGKIRVYCRIRPLNEKESSEREKQMLTTVDEFTVEHPWKDDKRKQHIYDRVFDMRASQDDIFEDTKYLVQSAVDGYNVCIFAYGQTGSGKTFTIYGHESNPGLTPRATKELFNILKRDSKRFSFSLKAYMVELYQDTLVDLLLPKSARRLKLEIKKDSKGMVFVENVTTIPISTLEELRMILERGSERRHVSGTNMNEESSRSHLILSVVIESIDLQTQSAARGKLSFVDLAGSERVKKSGSAGCQLKEAQSINKSLSALGDVIGALSSGNQHIPYRNHKLTMLMSDSLGGNAKTLMFVNVSPAESNLDETYNSLLYASRVRTIVNDPSKHISSKEMVRLKKLVAYWKEQAGKKGEEEDLVDIEEDRTRKDEADS
B1 was tested. Which binding [1] did it give?
Its binding is “binds”.

B2: Myc-KCBP (35S:Myc-KCBP) (protein, UniProt Q9FHN8 1-1260)
chain: B1 chain
With B2 as the binder, how does the binding [2] read?
Its binding is “binds”.

B3: AN-His (ANGUSTIFOLIA) (protein, UniProt O23702 1-636)
chain: MSKIRSSATMPHRDQPSPASPHVVTLNCIEDCALEQDSLAGVAGVEYVPLSRIADGKIESATAVLLHSLAYLPRAAQRRLRPHQLILCLGSADRAVDSTLAADLGLRLVHVDTSRAEEIADTVMALILGLLRRTHLLSRHALSASGWLGSLQPLCRGMRRCRGMVLGIVGRSVSARYLASRSLAFKMSVLYFDVPEGDEERIRPSRFPRAARRMDTLNDLLAASDVISLHCALTNDTVQILNAECLQHIKPGAFLVNTGSCQLLDDCAVKQLLIDGTIAGCALDGAEGPQWMEAWVKEMPNVLILPRSADYSEEVWMEIREKAISILHSFFLDGVIPSNTVSDEEVEESEASEEEEQSPSKHEKLAIVESTSRQQGESTLTSTEIVRREASELKESLSPGQQHVSQNTAVKPEGRRSRSGKKAKKRHSQQKYMQKTDGSSGLNEESTSRRDDIAMSDTEEVLSSSSRCASPEDSRSRKTPLEVMQESSPNQLVMSSKKFIGKSSELLKDGYVVALYAKDLSGLHVSRQRTKNGGWFLDTLSNVSKRDPAAQFIIAYRNKDTVGLRSFAAGGKLLQINRRMEFVFASHSFDVWESWSLEGSLDECRLVNCRNSSAVLDVRVEILAMVGDDGITRWID
B3 was tested. Which binding [3] did it give?
Its binding is “no binding”.
